This is one part of the list. Values are raw readings; no control value is given beside them.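 Primary screen: polymyxin B was added at a level permeabilizing Salmonella outer membranes while sparing inner membranes. DMSO wells, both with and without polymyxin B, established maximum growth. Plate-to-plate variation meant each plate was ranked on its own, and the lowest-OD600 compounds were selected as hits.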
Test system: Salmonella enterica serovar Typhimurium SL1344
Experiment: bacterial growth OD600 after 18 h with compound and polymyxin B; higher = more bacterial growth (less inhibition)
Conditions: 50 µM, Mueller-Hinton broth

SMILES: COc1cc(CN2CCN(Cc3ccccc3OC)CC2CCO)cc(OC)c1 (stereo not given)
- bacterial growth OD600 (polymyxin B 1 µg/mL): 0.878

SMILES: C=CCC(=O)N1CCCC(CCc2ccccc2)C1 (stereo not given)
- bacterial growth OD600 (polymyxin B 0.75 µg/mL): 0.419

SMILES: CCN1CCN(C2(C(=O)N(C)Cc3cn(C)nc3C)Cc3ccccc3C2)CC1
- bacterial growth OD600 (polymyxin B 0.75 µg/mL): 0.847

SMILES: Cc1ccccc1Oc1ncccc1CNC(=O)CCc1c(C)noc1C
- bacterial growth OD600 (polymyxin B 1 µg/mL): 0.874

SMILES: CCOC(=O)C1(Cc2ccc(F)cc2F)CCCN(C(=O)C(=O)c2ccccc2)C1 (stereo not given)
- bacterial growth OD600 (polymyxin B 1 µg/mL): 0.192

SMILES: CCN(CC)C1CCN(C(=O)c2cc(NS(=O)(=O)CC)cc3nc(-c4ccccc4)n(C)c23)C1 (stereo not given)
- bacterial growth OD600 (polymyxin B 0.75 µg/mL): 0.801

SMILES: COCc1ccc(C(=O)Nc2ccc(-c3nc(CNC(=O)C4CC(=O)N(C(C)C)C4)c(C)o3)cc2)o1 (stereo not given)
- bacterial growth OD600 (polymyxin B 0.75 µg/mL): 0.968

SMILES: Cc1cc(C(=O)NCc2cccnc2N2CCCCCCC2)n[nH]1
- bacterial growth OD600 (polymyxin B 1 µg/mL): 0.905

SMILES: O=C1CCCN1CCCN1CC(C(=O)N2CCN(CC3CCCC3)CC2)CCC1=O (stereo not given)
- bacterial growth OD600 (polymyxin B 1 µg/mL): 0.815

SMILES: COCCC(=O)N1CCC(Oc2ccc(C(=O)NCCc3ncccc3C)cc2)CC1
- bacterial growth OD600 (polymyxin B 1 µg/mL): 1.01

SMILES: O=C(C1CCC(=O)N(C2CCCCCC2)C1)N1CCN(C2CCCC2)C(=O)C1 (stereo not given)
- bacterial growth OD600 (polymyxin B 1 µg/mL): 1.19

SMILES: COc1ccc(-n2ncc(C(C)NS(=O)(=O)c3cccc4cccnc34)c2C)cc1 (stereo not given)
- bacterial growth OD600 (polymyxin B 1 µg/mL): 0.677

SMILES: CCOC(=O)C1(CCCc2ccccc2)CCN(C(=O)c2cnsn2)CC1
- bacterial growth OD600 (polymyxin B 1 µg/mL): 0.714

SMILES: O=C(CCc1ccsc1)N1CCOC(Cc2ccccc2)C1 (stereo not given)
- bacterial growth OD600 (polymyxin B 0.75 µg/mL): 0.858

SMILES: O=C(NCC1Cc2cc(F)cc(-c3ccccn3)c2O1)c1cc(F)ccc1F (stereo not given)
- bacterial growth OD600 (polymyxin B 0.75 µg/mL): 0.007

SMILES: OCC1(Cc2ccc(F)cc2)CCCN(Cc2cccn2-c2ncccn2)C1 (stereo not given)
- bacterial growth OD600 (polymyxin B 0.75 µg/mL): 0.816

SMILES: O=C(CN1CC(c2ccccc2)CC1=O)NCCN1Cc2ccccc2OC(c2ccccc2F)C1 (stereo not given)
- bacterial growth OD600 (polymyxin B 0.75 µg/mL): 0.007

SMILES: COCCN1CCN(C(=O)CC2(c3cccc(C(F)(F)F)c3)CC(=O)N(C3CC3)C2=O)CC1 (stereo not given)
- bacterial growth OD600 (polymyxin B 0.75 µg/mL): 0.851

SMILES: O=C(NCCc1cn2ccccc2n1)c1coc(CN2CCc3ccccc3C2)n1
- bacterial growth OD600 (polymyxin B 1 µg/mL): 0.713

SMILES: O=C(NC1CCCc2nc(-c3cccnc3)ncc21)c1noc2c1CCCC2 (stereo not given)
- bacterial growth OD600 (polymyxin B 0.75 µg/mL): 0.837
